Assay results as given in PubChem BioAssay AID342 (DTP/NCI, 2004).
The list shows only some results of the screen, not a fair sample: it gathers tests that were run many times, whatever their T/C, doses with no T/C, and many T/C values between a quarter and a half above the control. Other doses and runs of a compound stand elsewhere. T/C is the treated group as % of the vehicle group. Schedule codes are those of the source, taken here to give the interval after Q, in days (D) or hours (H), and the number of doses after X. Some entries hold several experiments; the results are listed from low to high. Some T/C values are followed by the survivors on the day toxicity was checked, most often the fifth; where none is given, no animal had died by that day. Some doses have a count of surviving animals in place of a T/C: the source files T/C as zero there, which appears to mark a toxic dose or a test without result, not a measured value. Survivors were counted at the toxicity check, usually on the fifth day, unless a day is given; later deaths do not show. Some schedules carry Z or #; the key to these is not given.

System: Swiss mice, Sarcoma 180 sc, mean tumor weight T/C
Assay: NCI In Vivo Anticancer Drug Screen. Data for tumor model Sarcoma 180 (subcutaneous) in Swiss mice
Conditions: T/C endpoint: mean tumor weight, higher T/C = larger tumour; for T/C: evaluated on day 8
Method in brief: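 Readout is the ratio of treated-group measurement to vehicle-control measurement (T/C), based on survival or tumor size in mice carrying transplanted tumors.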

[1] = dose: 32.0 mg/kg/injection, schedule: Q01DX007 (ip), vehicle: saline
[2] = dose: 500.0 mg/kg/injection, schedule: Q01DX007 (ip), vehicle: saline

Structure (SMILES): COc1cc([C@@H]2c3cc4c(cc3[C@H](O)[C@H]3COC(=O)[C@H]23)OCO4)cc(OC)c1OC
- T/C (dose: 0.22 mg/kg/injection, schedule: Q01DX007 (ip), vehicle: carboxymethylcellulose (CMC)): 133 % of control [9 of 10 alive]
- survivor count (dose: 1.8 mg/kg/injection, schedule: Q01DX007 (ip), vehicle: carboxymethylcellulose (CMC)): 3 of 10
- T/C (dose: 700.0 micrograms/kg/injection, schedule: Q01DX007 (ip), vehicle: carboxymethylcellulose (CMC)): 137 % of control

Structure (SMILES): CN(N=O)C(N)=O
- survivor count (dose: 11.25 mg/kg/injection, schedule: Q#A X014 (ip), vehicle: carboxymethylcellulose (CMC)): 6 of 10

Structure (SMILES): CC(=O)N(C)C
- T/C (dose: 250.0 mg/kg/injection, schedule: Q01DX007 (ip), vehicle: carboxymethylcellulose (CMC)): 128 % of control

Structure (SMILES): O=C(Nc1ccc(NC2=NCCN2)cc1)c1ccc(C(=O)Nc2ccc(NC3=NCCN3)cc2)cc1
- survivor count [1]: 3 of 6
- survivor count (dose: 64.0 mg/kg/injection, schedule: Q01DX007 (ip), vehicle: saline): 0 of 6
- survivor count (dose: 128.0 mg/kg/injection, schedule: Q01DX007 (ip), vehicle: saline): 0 of 6

Structure (SMILES): CN1CCC23c4c5ccc(O)c4OC2C(O)C=CC3C1C5 (centres undefined)
- survivor count [2]: 0 of 6

Structure (SMILES): CC(=O)OCC(=O)[C@@]1(O)CC[C@H]2[C@@H]3C[C@H](F)C4=CC(=O)CC[C@]4(C)[C@H]3C(=O)C[C@@]21C
- survivor count (dose: 44.0 mg/kg/injection, schedule: Q01DX007 (sc), vehicle: steroid suspending solution): 3 of 6
- survivor count (dose: 66.0 mg/kg/injection, schedule: Q01DX007 (sc), vehicle: steroid suspending solution): 1 of 6

Structure (SMILES): O=C1CCCCC1C(=O)C(F)(F)F (centres undefined)
- survivor count (dose: 27.75 mg/kg/injection, schedule: Q#A X014 (ip), vehicle: methylcellulose (MC)): 2 of 6
- survivor count (dose: 41.65 mg/kg/injection, schedule: Q#A X014 (ip), vehicle: methylcellulose (MC)): 3 of 6
- survivor count (dose: 62.5 mg/kg/injection, schedule: Q#A X014 (ip), vehicle: methylcellulose (MC)): 3 of 6
- survivor count (dose: 249.0 mg/kg/injection, schedule: Q03DX003 (ip), vehicle: saline): 3 of 7
- survivor count (dose: 374.0 mg/kg/injection, schedule: Q02DX004 (ip), vehicle: saline): 4 of 7
- survivor count (dose: 375.0 mg/kg/injection, schedule: Q03DX003 (ip), vehicle: saline): 3 of 7
- survivor count (dose: 800.0 mg/kg/injection, schedule: Q03DX003 (ip), vehicle: carboxymethylcellulose (CMC)): 1 of 6

Structure (SMILES): CC(/C=N\N=C(N)N)=N/N=C(N)N
- T/C (dose: 5.26 mg/kg/injection, schedule: Q01DX007 (ip), vehicle: carboxymethylcellulose (CMC)): 127 % of control
- T/C (dose: 10.52 mg/kg/injection, schedule: Q01DX007 (ip), vehicle: carboxymethylcellulose (CMC)): 135 % of control
- T/C (dose: 21.05 mg/kg/injection, schedule: Q01DX007 (ip), vehicle: carboxymethylcellulose (CMC)): 125 % of control

Structure (SMILES): N#Cc1cn(C2OC(CO)C(O)C2O)c2ncnc(N)c12 (centres undefined)
- survivor count (dose: 0.1 mg/kg/injection, schedule: Q#A X014 (ip), vehicle: carboxymethylcellulose (CMC)): 4 of 7

Structure (SMILES): CC(=O)[C@@]1(O)[C@H](C)C[C@H]2[C@@H]3C=C(C)C4=Cc5c(cnn5-c5ccccc5)C[C@]4(C)[C@H]3[C@@H](O)C[C@@]21C
- survivor count (dose: 8.0 mg/kg/injection, schedule: Q01DX007 (sc), vehicle: steroid suspending solution): 2 of 6

Structure (SMILES): NC(=O)c1n[se]nc1N
- survivor count (dose: 4.0 mg/kg/injection, schedule: Q01DX007 (ip), vehicle: carboxymethylcellulose (CMC)): 3 of 6
- survivor count (dose: 8.0 mg/kg/injection, schedule: Q01DX007 (ip), vehicle: carboxymethylcellulose (CMC)): 0 of 6
- survivor count (dose: 16.0 mg/kg/injection, schedule: Q01DX007 (ip), vehicle: carboxymethylcellulose (CMC)): 0 of 6
- survivor count (dose: 31.0 mg/kg/injection, schedule: Q01DX007 (ip), vehicle: carboxymethylcellulose (CMC)): 0 of 6
- survivor count (dose: 62.0 mg/kg/injection, schedule: Q01DX007 (ip), vehicle: carboxymethylcellulose (CMC)): 0 of 6

Structure (SMILES): CCCCCCCCCCCCCCCCCC1=NC(C)CC(C)(C)O1 (centres undefined)
- survivor count (dose: 281.5 mg/kg/injection, schedule: Q#A X014 (ip), vehicle: saline): 2 of 6

Structure (SMILES): CCCCNP(=O)(N1CC1)N1CC1
- survivor count (dose: 0.1 mg/kg/injection, schedule: Q#A X014 (ip), vehicle: saline): 2 of 6

Structure (SMILES): O=C1C=CC(=O)N1c1ccc2c(c1)oc(=O)c1ccccc12
- survivor count (dose: 750.0 mg/kg/injection, schedule: Q01DX007 (ip), vehicle: other): 4 of 7
- survivor count (dose: 1000.0 mg/kg/injection, schedule: Q01DX007 (sc), vehicle: steroid suspending solution): 3 of 6
- survivor count (dose: 1250.0 mg/kg/injection, schedule: Q01DX007 (sc), vehicle: steroid suspending solution): 2 of 6

Structure (SMILES): CC1CN1P(=O)(N1CCCC1)N1CC1C (centres undefined)
- survivor count (dose: 23.5 mg/kg/injection, schedule: Q#A X014 (ip), vehicle: saline): 3 of 6
- survivor count (dose: 105.0 mg/kg/injection, schedule: Q01DX007 (ip), vehicle: saline): 1 of 6

Structure (SMILES): CN1Cc2c(ccc3c2OCO3)[C@@H]2[C@H](O)Cc3cc4c(cc3[C@@H]21)OCO4
- survivor count (dose: 300.0 mg/kg/injection, schedule: Q01DX007 (ip), vehicle: carboxymethylcellulose (CMC)): 1 of 6
- survivor count (dose: 500.0 mg/kg/injection, schedule: Q01DX007 (ip), vehicle: carboxymethylcellulose (CMC)): 0 of 6

Structure (SMILES): COc1ccc2c3c(c4cc(OC)c(OC)cc4c2c1)C[C@H]1CCCCN1C3
- survivor count (dose: 2.0 mg/kg/injection, schedule: Q01DX007 (ip), vehicle: carboxymethylcellulose (CMC)): 0 of 6
- survivor count (dose: 3.0 mg/kg/injection, schedule: Q01DX007 (ip), vehicle: carboxymethylcellulose (CMC)): 0 of 5

Structure (SMILES): CSc1nc(C)c(Br)c(Sc2nc(N)nc3nc[nH]c23)n1
- survivor count (dose: 24.0 mg/kg/injection, schedule: Q01DX007 (ip), vehicle: carboxymethylcellulose (CMC)): 3 of 6
- survivor count (dose: 55.0 mg/kg/injection, schedule: Q01DX007 (ip), vehicle: carboxymethylcellulose (CMC)): 2 of 6

Structure (SMILES): CC(=O)C1(/C(C)=C/C2C(C=O)=CC(C)(C)C2O)CC1 (centres undefined)
- T/C (dose: 4.0 mg/kg/injection, schedule: Q01DX007 (ip), vehicle: saline): 129 % of control
- T/C [1]: 139 % of control

Structure (SMILES): S=c1nc[nH]c2nc[nH]c12
- T/C (dose: 29.0 mg/kg/injection, schedule: Q01DX007 (ip), vehicle: carboxymethylcellulose (CMC)): 42, 45, 64, 65 % of control
- survivor count (dose: 120.0 mg/kg/injection, schedule: Q01DX007 (ip), vehicle: other): 1 of 6
- survivor count (dose: 150.0 mg/kg/injection, schedule: Q01DX007 (ip), vehicle: carboxymethylcellulose (CMC)): 0 of 6
- survivor count (dose: 240.0 mg/kg/injection, schedule: Q01DX007 (ip), vehicle: other): 0 of 6

Structure (SMILES): C=CC1CN2CCC1CC2C(O)c1ccnc2ccc(OC)cc12 (centres undefined)
- survivor count (dose: 450.0 mg/kg/injection, schedule: Q01DX007 (ip), vehicle: carboxymethylcellulose (CMC)): 1 of 10

Structure (SMILES): Clc1ccc2c(c1)Cc1cc(N=Cc3ccccc3Cl)ccc1-2
- survivor count (dose: 222.0 mg/kg/injection, schedule: Q01DX007 (ip), vehicle: saline): 2 of 6
- survivor count (dose: 333.0 mg/kg/injection, schedule: Q01DX007 (ip), vehicle: saline): 0 of 6
- survivor count [2]: 0 of 6
- survivor count (dose: 750.0 mg/kg/injection, schedule: Q01DX007 (ip), vehicle: saline): 0 of 6
- survivor count (dose: 1119.0 mg/kg/injection, schedule: Q01DX007 (ip), vehicle: carboxymethylcellulose (CMC)): 2 of 6
- survivor count (dose: 1679.0 mg/kg/injection, schedule: Q01DX007 (ip), vehicle: carboxymethylcellulose (CMC)): 0 of 6

Structure (SMILES): CO[C@H]1C(=O)C[C@H]2[C@@H]3CC=C4C[C@@H](O)CC[C@]4(C)[C@H]3CC[C@]12C
- T/C (dose: 20.0 mg/kg/injection, schedule: Q01DX007 (sc), vehicle: steroid suspending solution): 129 % of control

Structure (SMILES): COc1cccc(/C=N\NC(=O)C(C)SC(C)C(=O)N/N=C/c2cccc(OC)c2)c1 (centres undefined)
- survivor count (dose: 84.0 mg/kg/injection, schedule: Q01DX007 (ip), vehicle: carboxymethylcellulose (CMC)): 4 of 7

Structure (SMILES): COC(=O)CC(C(=O)C=[N+]=[N-])N1C(=O)c2ccccc2C1=O (centres undefined)
- T/C (dose: 3.2 mg/kg/injection, schedule: Q01DX007 (ip), vehicle: carboxymethylcellulose (CMC)): 138 % of control

Structure (SMILES): CN(C)c1ccc2c(c1)Cc1cc(N=C3C=CC(=O)O3)ccc1-2
- survivor count (dose: 250.0 mg/kg/injection, schedule: Q01DX007 (ip), vehicle: other): 3 of 6
- survivor count (dose: 375.0 mg/kg/injection, schedule: Q01DX007 (ip), vehicle: other): 0 of 6
